Values from PubChem BioAssay AID1508588 (Peter MacCallum Cancer Centre, 2020).

Purpose: 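Genome-wide search for knock-downs that heighten vemurafenib action in melanoma cells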 (primary screen)
Cells: human WM266.4 melanoma cells (BRAF V600 mutant)
Reagent: siRNA pool against human genes, 40 nM
Timing: 96 h from transfection to read-out
Challenge: vemurafenib 300 nM (about IC25), added 48 h after transfection, for 48 h; comparison arm got DMSO vehicle only
Measured: 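Cell gain (DAPI nuclei at end minus before drug, mean of two replicates) and medium lactate by absorbance per cell, both as ratio to non-targeting siRNA, also grouped into fold-change classes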
Direction: cell gain with vemurafenib: higher = more cell gain than with non-targeting siRNA; lactate per cell with vemurafenib: higher = more lactate made per cell
Rule for the call: 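Enhancement is called by pairing each knock-down's vehicle-arm and drug-arm fold-change classes for viability or glycolysis; which class combinations qualify is not given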
Meaning of the calls: active = enhances vemurafenib effect; inactive = no enhancement seen
Shown is one part, drawn at random, of about 18,000 reagents tested. In the full data, 790 (4.4%) got an active call. 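Calls rest on a combination of fold-change classes in drug and vehicle arms, not all shown here.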

| Gene | cell gain with vemurafenib | lactate per cell with vemurafenib | Outcome |
| --- | --- | --- | --- |
| SLC38A6 | 0.8 | 0.45 | active |
| NLGN2 | 0.92 | 0.6 | inactive |
| SFN | 0.89 | 0.88 | inactive |
| NUMB | 0.14 | 2.51 | inactive |
| FAM161A | 0.84 | 0.52 | inactive |
| NEDD8 | 0.59 | 1.55 | inactive |
| WFIKKN1 | 0.5 | 0.58 | inactive |
| WARS2 | 0.72 | 0.95 | inactive |
| PRAMEF9 | 0.36 | 1.21 | inactive |
| IRF6 | 0.6 | 0.52 | inactive |
| NBPF10 | 0.78 | 0.53 | inactive |
| TSPAN6 | 0.57 | 0.77 | inactive |
| RBM48 | 0.76 | 1.48 | inactive |
| STYXL1 | 0.5 | 0.98 | inactive |
| C20orf96 | 0.34 | 1.09 | inactive |
| SNX24 | 0.65 | 1.65 | inactive |
| CHRNA1 | 0.64 | 0.5 | inactive |
| MAF | 0.41 | 0.46 | inactive |
| SPAG9 | -0.08 | 1.81 | inactive |
| FTSJ3 | 0.76 | 0.55 | inactive |
| BLK | 0.98 | 0.44 | active |
| BCS1L | 0.24 | 0.97 | inactive |
| FUT4 | 0.54 | 1.24 | inactive |
| GTF2A1L | 0.74 | 1.4 | inactive |
| ZBED10P | 0.28 | 0.82 | inactive |
| TRIM14 | 0.93 | 0.94 | inactive |
| PCDHGA5 | 0.59 | 1.1 | inactive |
| DNAJC5B | 0.93 | 1 | inactive |
| KAZALD1 | 0.42 | 0.55 | inactive |
| MDH1B | 0.06 | 2.96 | inactive |
| SLC19A3 | 1.04 | 1.21 | inactive |
| VN1R2 | 1.08 | 0.63 | inactive |
| EIF4EBP3 | 0.43 | 0.78 | inactive |
| CAPN7 | 0.82 | 1.43 | inactive |
| CALCB | 0.94 | 0.91 | inactive |
| TLCD5 | 0.94 | 0.72 | inactive |
| GART | 0.25 | 1.87 | inactive |
| SLCO1B7 | 0.51 | 0.75 | inactive |
| SCNM1 | 0.14 | 3.83 | inactive |
| KLHDC9 | 0.62 | 0.7 | inactive |
| HHIPL1 | 0.17 | 1.52 | inactive |
| CAMK4 | 0.58 | 1.44 | inactive |
| GATB | 0.96 | 0.81 | inactive |
| DEFB126 | 0.12 | 2.28 | inactive |
| NRCAM | 0.89 | 0.72 | inactive |
| OR5AS1 | 0.8 | 0.77 | inactive |
| GRK3 | 0.95 | 0.87 | inactive |
| OR10J3 | 0.38 | 1.36 | inactive |
| OR51B5 | 0 | 0.82 | inactive |
| GDF9 | 0.2 | 1.1 | inactive |
| MSH4 | 0.07 | 2.2 | inactive |
| EPHA8 | 0.22 | 1.94 | inactive |
| SOS2 | 0.22 | 0.59 | inactive |
| OTOP2 | 0.64 | 1.03 | inactive |
| P2RX7 | 0.32 | 2.03 | inactive |
| EXOC7 | 0.34 | 1.11 | inactive |
| VPS52 | 0.36 | 1.7 | inactive |

Records listed so far whose target name begins with G or g (5):
| Gene | cell gain with vemurafenib | lactate per cell with vemurafenib | Outcome |
| --- | --- | --- | --- |
| GTF2A1L | 0.74 | 1.4 | inactive |
| GART | 0.25 | 1.87 | inactive |
| GATB | 0.96 | 0.81 | inactive |
| GRK3 | 0.95 | 0.87 | inactive |
| GDF9 | 0.2 | 1.1 | inactive |
